The values below come from publication PMC6321601 (Molecules, 2018).

This series deals with HepG-2 and L-O2 cell lines. Briefly: Therapeutic index, ratio of IC50 for L-O2 to IC50 for HepG-2. The series is classed as cell-based, human. The note with it: IC50 (L-O2)/IC50 (HepG-2).

`CC(=O)OC(C)(C)/C=C/C(=O)[C@](C)(O)C1[C@H](OC(=O)C=Cc2ccccc2)C[C@@]2(C)C3CC=C4C(C[C@H](O)C(=O)C4(C)C)[C@]3(C)C(=O)C[C@]12C` (stereo partly drawn) [Compound 3o, (2S,9R,13R,14S,16R)-17-((R,E)-6-Acetoxy-2-hydroxy-6-methyl-3-oxohept-4-en-2-yl)-2-hydroxy-4,4,9,13,14-pentamethyl-3,11-dioxo-2,3,4,7,8,9,10,11,12,13,14,15,16,17-tetradecahydro-1H-cyclopenta[a]phenanthren-16-yl cinnamate]: the “TI (Therapeutic Index)” value is 2.9.

In the case of `CC(=O)OC(C)(C)/C=C/C(=O)[C@](C)(O)C1[C@H](OC(=O)C2CCC2)C[C@@]2(C)C3CC=C4C(CC(O)C(=O)C4(C)C)[C@]3(C)C(=O)C[C@]12C` (stereo partly drawn) [Compound 3b, (9R,13R,14S,16R)-17-((R,E)-6-Acetoxy-2-hydroxy-6-methyl-3-oxohept-4-en-2-yl)-2-hydroxy-4,4,9,13,14-pentamethyl-3,11-dioxo-2,3,4,7,8,9,10,11,12,13,14,15,16,17-tetradecahydro-1H-cyclopenta[a]phenanthren-16-yl cyclobutanecarboxylate], the “TI (Therapeutic Index)” value is 0.96.

As for `CC(=O)OC(C)(C)/C=C/C(=O)[C@](C)(O)C1[C@H](OC(=O)CCC(=O)OCCOc2no[n+]([O-])c2S(=O)(=O)c2ccccc2)C[C@@]2(C)C3CC=C4C(CC(O)C(=O)C4(C)C)[C@]3(C)C(=O)C[C@]12C` (stereo partly drawn) [Compound 10a, 4-(2-((4-(((9R,13R,14S,16R)-17-((R,E)-6-Acetoxy-2-hydroxy-6-methyl-3-oxohept-4-en-2-yl)-2-hydroxy-4,4,9,13,14-pentamethyl-3,11-dioxo-2,3,4,7,8,9,10,11,12,13,14,15,16,17-tetradecahydro-1H-cyclopenta[a]phenanthren-16-yl)oxy)-4-oxobutanoyl)oxy)ethoxy)-3-(phenylsulfonyl)-1,2,5-oxadiazole 2-oxide], the “TI (Therapeutic Index)” value is 2.49.

Regarding `CC(=O)OC(C)(C)/C=C/C(=O)[C@](C)(O)C1[C@H](OC(=O)CCC(=O)OCc2ccc(COc3no[n+]([O-])c3S(=O)(=O)c3ccccc3)cc2)C[C@@]2(C)C3CC=C4C(CC(O)C(=O)C4(C)C)[C@]3(C)C(=O)C[C@]12C` (stereo partly drawn) [Compound 10o, 4-((4-(((4-(((9R,13R,14S,16R)-17-((R,E)-6-Acetoxy-2-hydroxy-6-methyl-3-oxohept-4-en-2-yl)-2-hydroxy-4,4,9,13,14-pentamethyl-3,11-dioxo-2,3,4,7,8,9,10,11,12,13,14,15,16,17-tetradecahydro-1H-cyclopenta[a]phenanthren-16-yl)oxy)-4-oxobutanoyl)oxy)methyl)benzyl)oxy)-3-(phenylsulfonyl)-1,2,5-oxadiazole 2-oxide], the “TI (Therapeutic Index)” value was determined as 2.94.

In the case of `CC(=O)OC(C)(C)/C=C/C(=O)[C@](C)(O)C1[C@H](OC(=O)c2ccc(Cl)cc2)C[C@@]2(C)C3CC=C4C(C[C@H](O)C(=O)C4(C)C)[C@]3(C)C(=O)C[C@]12C` (stereo partly drawn) [Compound 3j, (2S,9R,13R,14S,16R)-17-((R,E)-6-Acetoxy-2-hydroxy-6-methyl-3-oxohept-4-en-2-yl)-2-hydroxy-4,4,9,13,14-pentamethyl-3,11-dioxo-2,3,4,7,8,9,10,11,12,13,14,15,16,17-tetradecahydro-1H-cyclopenta[a]phenanthren-16-yl 4-chlorobenzoate], the “TI (Therapeutic Index)” value came out at 0.76.

As to `CC(=O)OC(C)(C)/C=C/C(=O)[C@](C)(O)C1[C@H](OC(=O)CCC(=O)OCCCCCCCCCOc2no[n+]([O-])c2S(=O)(=O)c2ccccc2)C[C@@]2(C)C3CC=C4C(CC(O)C(=O)C4(C)C)[C@]3(C)C(=O)C[C@]12C` (stereo partly drawn) [Compound 10h, 4-((9-((4-(((9R,13R,14S,16R)-17-((R,E)-6-Acetoxy-2-hydroxy-6-methyl-3-oxohept-4-en-2-yl)-2-hydroxy-4,4,9,13,14-pentamethyl-3,11-dioxo-2,3,4,7,8,9,10,11,12,13,14,15,16,17-tetradecahydro-1H-cyclopenta[a]phenanthren-16-yl)oxy)-4-oxobutanoyl)oxy)nonyl)oxy)-3-(phenylsulfonyl)-1,2,5-oxadiazole 2-oxide], the “TI (Therapeutic Index)” value amounted to 1.02.

As to `CC(=O)OC(C)(C)/C=C/C(=O)[C@](C)(O)C1[C@H](OC(=O)CCCCNC(=O)OC(C)(C)C)C[C@@]2(C)C3CC=C4C(C[C@H](O)C(=O)C4(C)C)[C@]3(C)C(=O)C[C@]12C` (stereo partly drawn) [Compound 3d, (2S,9R,13R,14S,16R)-17-((R,E)-6-Acetoxy-2-hydroxy-6-methyl-3-oxohept-4-en-2-yl)-2-hydroxy-4,4,9,13,14-pentamethyl-3,11-dioxo-2,3,4,7,8,9,10,11,12,13,14,15,16,17-tetradecahydro-1H-cyclopenta[a]phenanthren-16-yl 5-((tert-butoxycarbonyl)amino)pentanoate], the “TI (Therapeutic Index)” value is recorded as 1.64.

For the molecule `COc1ccc(C(=O)O[C@@H]2C[C@@]3(C)C4CC=C5C(C[C@H](O)C(=O)C5(C)C)[C@]4(C)C(=O)C[C@]3(C)C2[C@@](C)(O)C(=O)/C=C/C(C)(C)OC(C)=O)cc1` (stereo partly drawn) [Compound 3l, (2S,9R,13R,14S,16R)-17-((R,E)-6-Acetoxy-2-hydroxy-6-methyl-3-oxohept-4-en-2-yl)-2-hydroxy-4,4,9,13,14-pentamethyl-3,11-dioxo-2,3,4,7,8,9,10,11,12,13,14,15,16,17-tetradecahydro-1H-cyclopenta[a]phenanthren-16-yl 4-methoxybenzoate], the “TI (Therapeutic Index)” value is 0.67.

`COc1cc(/C=C/C(=O)O[C@@H]2C[C@@]3(C)C4CC=C5C(C[C@H](O)C(=O)C5(C)C)[C@]4(C)C(=O)C[C@]3(C)C2[C@@](C)(O)C(=O)/C=C/C(C)(C)OC(C)=O)cc(OC)c1` (stereo partly drawn) [Compound 3q, (2S,9R,13R,14S,16R)-17-((R,E)-6-Acetoxy-2-hydroxy-6-methyl-3-oxohept-4-en-2-yl)-2-hydroxy-4,4,9,13,14-pentamethyl-3,11-dioxo-2,3,4,7,8,9,10,11,12,13,14,15,16,17-tetradecahydro-1H-cyclopenta[a]phenanthren-16-yl (E)-3-(3,5-dimethoxyphenyl)acrylate]: the “TI (Therapeutic Index)” value was 1.36.

For the molecule `CC(=O)OC(C)(C)/C=C/C(=O)[C@](C)(O)C1[C@H](OC(=O)c2ccc([N+](=O)[O-])cc2)C[C@@]2(C)C3CC=C4C(C[C@H](O)C(=O)C4(C)C)[C@]3(C)C(=O)C[C@]12C` (stereo partly drawn) [Compound 3m, (2S,9R,13R,14S,16R)-17-((R,E)-6-Acetoxy-2-hydroxy-6-methyl-3-oxohept-4-en-2-yl)-2-hydroxy-4,4,9,13,14-pentamethyl-3,11-dioxo-2,3,4,7,8,9,10,11,12,13,14,15,16,17-tetradecahydro-1H-cyclopenta[a]phenanthren-16-yl 4-nitrobenzoate], the “TI (Therapeutic Index)” value was 0.8.

Regarding `CC(=O)OC(C)(C)/C=C/C(=O)[C@](C)(O)C1[C@H](OC(=O)CCC(=O)OCCCOc2no[n+]([O-])c2S(=O)(=O)c2ccccc2)C[C@@]2(C)C3CC=C4C(CC(O)C(=O)C4(C)C)[C@]3(C)C(=O)C[C@]12C` (stereo partly drawn) [Compound 10b, 4-(3-((4-(((9R,13R,14S,16R)-17-((R,E)-6-Acetoxy-2-hydroxy-6-methyl-3-oxohept-4-en-2-yl)-2-hydroxy-4,4,9,13,14-pentamethyl-3,11-dioxo-2,3,4,7,8,9,10,11,12,13,14,15,16,17-tetradecahydro-1H-cyclopenta[a]phenanthren-16-yl)oxy)-4-oxobutanoyl)oxy)propoxy)-3-(phenylsulfonyl)-1,2,5-oxadiazole 2-oxide], the “TI (Therapeutic Index)” value is reported as 4.71.

For `CC(=O)OC(C)(C)/C=C/C(=O)[C@](C)(O)C1[C@H](OC(=O)CCC(=O)OCCCCCOc2no[n+]([O-])c2S(=O)(=O)c2ccccc2)C[C@@]2(C)C3CC=C4C(CC(O)C(=O)C4(C)C)[C@]3(C)C(=O)C[C@]12C` (stereo partly drawn) [Compound 10d, 4-((5-((4-(((9R,13R,14S,16R)-17-((R,E)-6-Acetoxy-2-hydroxy-6-methyl-3-oxohept-4-en-2-yl)-2-hydroxy-4,4,9,13,14-pentamethyl-3,11-dioxo-2,3,4,7,8,9,10,11,12,13,14,15,16,17-tetradecahydro-1H-cyclopenta[a]phenanthren-16-yl)oxy)-4-oxobutanoyl)oxy)pentyl)oxy)-3-(phenylsulfonyl)-1,2,5-oxadiazole 2-oxide], the “TI (Therapeutic Index)” value amounted to 4.1.

As for `CC(=O)OC(C)(C)/C=C/C(=O)[C@](C)(O)C1[C@H](OC(=O)c2ccc(C)cc2)C[C@@]2(C)C3CC=C4C(C[C@H](O)C(=O)C4(C)C)[C@]3(C)C(=O)C[C@]12C` (stereo partly drawn) [Compound 3h, (2S,9R,13R,14S,16R)-17-((R,E)-6-Acetoxy-2-hydroxy-6-methyl-3-oxohept-4-en-2-yl)-2-hydroxy-4,4,9,13,14-pentamethyl-3,11-dioxo-2,3,4,7,8,9,10,11,12,13,14,15,16,17-tetradecahydro-1H-cyclopenta[a]phenanthren-16-yl 4-methylbenzoate], the “TI (Therapeutic Index)” value was determined as 0.72.

As to `CC(=O)OC(C)(C)/C=C/C(=O)[C@](C)(O)C1[C@H](OC(=O)c2ccc(F)cc2)C[C@@]2(C)C3CC=C4C(C[C@H](O)C(=O)C4(C)C)[C@]3(C)C(=O)C[C@]12C` (stereo partly drawn) [Compound 3i, (2S,9R,13R,14S,16R)-17-((R,E)-6-Acetoxy-2-hydroxy-6-methyl-3-oxohept-4-en-2-yl)-2-hydroxy-4,4,9,13,14-pentamethyl-3,11-dioxo-2,3,4,7,8,9,10,11,12,13,14,15,16,17-tetradecahydro-1H-cyclopenta[a]phenanthren-16-yl 4-fluorobenzoate], the “TI (Therapeutic Index)” value was found to be 0.60.

Regarding `CC(=O)OC(C)(C)/C=C/C(=O)[C@](C)(O)C1[C@H](OC(=O)CCC(=O)OCCCCCCCOc2no[n+]([O-])c2S(=O)(=O)c2ccccc2)C[C@@]2(C)C3CC=C4C(CC(O)C(=O)C4(C)C)[C@]3(C)C(=O)C[C@]12C` (stereo partly drawn) [Compound 10f, 4-((7-((4-(((9R,13R,14S,16R)-17-((R,E)-6-Acetoxy-2-hydroxy-6-methyl-3-oxohept-4-en-2-yl)-2-hydroxy-4,4,9,13,14-pentamethyl-3,11-dioxo-2,3,4,7,8,9,10,11,12,13,14,15,16,17-tetradecahydro-1H-cyclopenta[a]phenanthren-16-yl)oxy)-4-oxobutanoyl)oxy)heptyl)oxy)-3-(phenylsulfonyl)-1,2,5-oxadiazole 2-oxide], the “TI (Therapeutic Index)” value is 3.92.
